In patent US20210261642A1, “SOLUBILITY OF GLP-1 PEPTIDE” (Novo Nordisk A/S, priority 2017, published 2021):
This continues a long series; more values of the same kind are listed elsewhere.

Experiment: Assay (I): Determination of Solubility (96-well plate, pH 3.0-11.0, organic solvent 0-70% w/w, UV absorption at 280 nm)
Assay type: physicochemical
Experimental: Assay (I): Determination of Solubility
96-Well Plate Preparation
96-well plates containing target peptide in a solid form were prepared in one of two ways:
Method 1 (evaporation): Addition of 100 μl stock solution of said peptide at a concentration of 4-6 mg/ml to each well of a 96-well half area plate (150 μl well size). Subsequently the solvent was evaporated by applying a vacuum until the solvent was completely removed.
Method 2 (precipitation): Addition of a certain volume of a stock solution of said peptide containing to each well of a 96-well half area plate followed by the addition of a certain volume of concentrated phosphoric acid to obtain a pH of 4.6 followed by addition of a certain volume of ethanol resulting in a final ethanol concentration of 20% v/v. Subsequently the plate was stored at 4° C. for 1 h and then centrifuged at 4,000 rpm for 20 min. Finally the supernatant was removed. The concentration of the stock solution was chosen in a way that the final amount of peptide after supernatant removal was >0.4 mg per well.
In both cases the stock solution was prepared by adding de-ionized water to a certain amount of powder of said peptide followed by a stepwise addition of small amounts of a concentrated sodium hydroxide solution until said peptide was completely in solution.
To determine solubility of a target peptide at different pH and organic solvent concentrations, two different buffer systems were used in independent experiments to cover the whole range from pH 3.0 to pH 11.0. Buffer system 1 covers pH 3.0-7.5 and buffer system 2 covers pH 7.5-11.0. For each buffer system 96 different solvent compositions were premixed in the following way: • 1. A low pH buffer (adjusted to either pH 3.0 or pH 7.5) and a high pH buffer (adjusted to either pH 7.5 or pH 11.0) were mixed at 8 different ratios to obtain values between pH 3.0 and pH 7.5 or pH 7.5 and pH 11.0, respectively. The total volume after mixing was 300 μl. • 2. 12 different amounts of organic solvent were then added to these buffers to obtain organic solvent (e.g. ethanol) concentrations between 0 and 70% w/w. • 3. Water was then added to obtain a total weight of 1.0 g of solvent in each well.
After preparing the 96 different solvent systems, 100 μl of each system was transferred to the 96-well plate containing the solid form of the target peptide (prepared as described in the section “96-well plate preparation”). The plate was then stored at a given temperature (between 5° C. and 70° C.) for a given time on a rotating shaker set to 400 rpm. At regular time intervals the plate was centrifuged (4,000 rpm for 10 min) and a 10 μl sample was taken from each well. The samples were then analysed by UV absorption at 280 nm for peptide quantification. Peptide concentration results are given as UV absorption at 280 nm of the sample subtracted UV absorption at 280 nm of a well comprising 10 μl water.
The buffers used were as follows: • Buffer system 1 (for the pH range from pH 3.0-7.5)
• Buffer system 2 (for the pH ranae from pH 7.5-11.0)
Solubility of liraglutide was determined using Assay (I) described herein. Liraglutide was prepared using Method 1 (evaporation) or Method 2 (precipitation) as described in subsection “96-well plate preparation”.

[1] = MeCN 50.9% w/w, pH 3.0, RT, Method 1
[2] = MeCN 50.9% w/w, pH 3.6, 5° C., Method 1
[3] = MeCN 50.9% w/w, pH 3.6, 70° C., Method 1
[4] = MeCN 50.9% w/w, pH 3.6, RT, Method 1
[5] = MeCN 50.9% w/w, pH 4.3, 5° C., Method 1
[6] = MeCN 50.9% w/w, pH 4.3, 70° C., Method 1
[7] = MeCN 50.9% w/w, pH 4.3, RT, Method 1
[8] = MeCN 50.9% w/w, pH 4.9, 5° C., Method 1
[9] = MeCN 50.9% w/w, pH 4.9, 70° C., Method 1
[10] = MeCN 50.9% w/w, pH 4.9, RT, Method 1
[11] = MeCN 50.9% w/w, pH 5.6, 5° C., Method 1
[12] = MeCN 50.9% w/w, pH 5.6, 70° C., Method 1
[13] = MeCN 50.9% w/w, pH 5.6, RT, Method 1
[14] = MeCN 50.9% w/w, pH 6.2, 5° C., Method 1
[15] = MeCN 50.9% w/w, pH 6.2, 70° C., Method 1
[16] = MeCN 50.9% w/w, pH 6.2, RT, Method 1
[17] = MeCN 50.9% w/w, pH 6.9, 5° C., Method 1
[18] = MeCN 50.9% w/w, pH 6.9, 70° C., Method 1
[19] = MeCN 50.9% w/w, pH 6.9, RT, Method 1
[20] = MeCN 50.9% w/w, pH 7.5, 5° C., Method 1
[21] = MeCN 50.9% w/w, pH 7.5, 70° C., Method 1
[22] = MeCN 50.9% w/w, pH 7.5, RT, Method 1
[23] = MeCN 50.9% w/w, pH 8.0, 70° C., Method 1 (evaporation)
[24] = MeCN 50.9% w/w, pH 8.0, RT, Method 1
[25] = MeCN 50.9% w/w, pH 8.5, 70° C., Method 1 (evaporation)
[26] = MeCN 50.9% w/w, pH 8.5, RT, Method 1
[27] = MeCN 50.9% w/w, pH 9.0, 70° C., Method 1 (evaporation)
[28] = MeCN 50.9% w/w, pH 9.0, RT, Method 1
[29] = MeCN 50.9% w/w, pH 9.5, 70° C., Method 1 (evaporation)
[30] = MeCN 50.9% w/w, pH 9.5, RT, Method 1
[31] = MeCN 50.9% w/w, pH 10.0, 70° C., Method 1 (evaporation)
[32] = MeCN 50.9% w/w, pH 10.0, RT, Method 1
[33] = MeCN 50.9% w/w, pH 10.5, 70° C., Method 1 (evaporation)
[34] = MeCN 50.9% w/w, pH 10.5, RT, Method 1
[35] = MeCN 50.9% w/w, pH 11.0, 70° C., Method 1 (evaporation)
[36] = MeCN 50.9% w/w, pH 11.0, RT, Method 1
[37] = MeCN 57.3% w/w, pH 3.0, 5° C., Method 1

CCCCCCCCCCCCCCCC(=O)N[C@@H](CCC(=O)NCCCC[C@H](NC(=O)[C@H](C)NC(=O)[C@H](C)NC(=O)[C@H](CCC(N)=O)NC(=O)CNC(=O)[C@H](CCC(=O)O)NC(=O)[C@H](CC(C)C)NC(=O)[C@H](Cc1ccc(O)cc1)NC(=O)[C@H](CO)NC(=O)[C@H](CO)NC(=O)[C@@H](NC(=O)[C@H](CC(=O)O)NC(=O)[C@H](CO)NC(=O)[C@@H](NC(=O)[C@H](Cc1ccccc1)NC(=O)[C@@H](NC(=O)CNC(=O)[C@H](CCC(=O)O)NC(=O)[C@H](C)NC(=O)[C@@H](N)Cc1cnc[nH]1)[C@@H](C)O)[C@@H](C)O)C(C)C)C(=O)N[C@@H](CCC(=O)O)C(=O)N[C@@H](Cc1ccccc1)C(=O)N[C@H](C(=O)N[C@@H](C)C(=O)N[C@@H](Cc1c[nH]c2ccccc12)C(=O)N[C@@H](CC(C)C)C(=O)N[C@H](C(=O)N[C@@H](CCCNC(=N)N)C(=O)NCC(=O)N[C@@H](CCCNC(=N)N)C(=O)NCC(=O)O)C(C)C)[C@@H](C)CC)C(=O)O [liraglutide, Arg34,Lys26-(N-epsilon-(gamma-L-glutamyl(N-alfa-hexadecanoyl)))-GLP-1(7-37)]
Peptide concentration after 5 min (MeCN 50.9% w/w, pH 3.0, 70° C., Method 1): 1.0 mg/mL
Peptide concentration after 5 min [1]: 0.6 mg/mL
Peptide concentration after 180 min [1]: 1.2 mg/mL
Peptide concentration after 24 h [1]: 0.1 mg/mL
Peptide concentration after 5 min [2]: 0.2 mg/mL
Peptide concentration after 180 min [2]: 0.5 mg/mL
Peptide concentration after 24 h [2]: 0.7 mg/mL
Peptide concentration after 5 min [3]: 0.5 mg/mL
Peptide concentration after 180 min [3]: 0.9 mg/mL
Peptide concentration after 5 min [4]: 0.3 mg/mL
Peptide concentration after 180 min [4]: 0.4 mg/mL
Peptide concentration after 24 h [4]: 0.4 mg/mL
Peptide concentration after 5 min [5]: 0.2 mg/mL
Peptide concentration after 180 min [5]: 0.3 mg/mL
Peptide concentration after 24 h [5]: 0.4 mg/mL
Peptide concentration after 5 min [6]: 0.6 mg/mL
Peptide concentration after 180 min [6]: 0.9 mg/mL
Peptide concentration after 5 min [7]: 0.2 mg/mL
Peptide concentration after 180 min [7]: 0.3 mg/mL
Peptide concentration after 24 h [7]: 0.2 mg/mL
Peptide concentration after 5 min [8]: 0.3 mg/mL
Peptide concentration after 180 min [8]: 0.4 mg/mL
Peptide concentration after 24 h [8]: 0.3 mg/mL
Peptide concentration after 5 min [9]: 0.5 mg/mL
Peptide concentration after 180 min [9]: 0.9 mg/mL
Peptide concentration after 5 min [10]: 0.2 mg/mL
Peptide concentration after 180 min [10]: 0.3 mg/mL
Peptide concentration after 24 h [10]: 0.2 mg/mL
Peptide concentration after 5 min [11]: 0.4 mg/mL
Peptide concentration after 180 min [11]: 0.7 mg/mL
Peptide concentration after 24 h [11]: 0.6 mg/mL
Peptide concentration after 5 min [12]: 1.0 mg/mL
Peptide concentration after 180 min [12]: 1.5 mg/mL
Peptide concentration after 5 min [13]: 0.5 mg/mL
Peptide concentration after 180 min [13]: 0.7 mg/mL
Peptide concentration after 24 h [13]: 0.4 mg/mL
Peptide concentration after 5 min [14]: 0.6 mg/mL
Peptide concentration after 180 min [14]: 0.9 mg/mL
Peptide concentration after 24 h [14]: 0.9 mg/mL
Peptide concentration after 5 min [15]: 1.0 mg/mL
Peptide concentration after 180 min [15]: 2.0 mg/mL
Peptide concentration after 5 min [16]: 0.7 mg/mL
Peptide concentration after 180 min [16]: 0.8 mg/mL
Peptide concentration after 24 h [16]: 0.7 mg/mL
Peptide concentration after 5 min [17]: 0.6 mg/mL
Peptide concentration after 180 min [17]: 1.4 mg/mL
Peptide concentration after 24 h [17]: 1.7 mg/mL
Peptide concentration after 5 min [18]: 2.2 mg/mL
Peptide concentration after 180 min [18]: 3.6 mg/mL
Peptide concentration after 5 min [19]: 0.6 mg/mL
Peptide concentration after 180 min [19]: 1.5 mg/mL
Peptide concentration after 24 h [19]: 0.0 mg/mL
Peptide concentration after 5 min [20]: 1.0 mg/mL
Peptide concentration after 180 min [20]: 3.0 mg/mL
Peptide concentration after 24 h [20]: >4.0 mg/mL
Peptide concentration after 5 min [21]: >4.0 mg/mL
Peptide concentration after 180 min [21]: >4.0 mg/mL
Peptide concentration after 5 min [22]: 1.0 mg/mL
Peptide concentration after 180 min [22]: >4.0 mg/mL
Peptide concentration after 24 h [22]: >4.0 mg/mL
Peptide concentration after 5 min [23]: 3.7 mg/mL
Peptide concentration after 180 min [23]: >4.0 mg/mL
Peptide concentration after 5 min [24]: 0.7 mg/mL
Peptide concentration after 180 min [24]: 3.8 mg/mL
Peptide concentration after 24 h [24]: >4.0 mg/mL
Peptide concentration after 5 min [25]: 2.9 mg/mL
Peptide concentration after 180 min [25]: >4.0 mg/mL
Peptide concentration after 5 min [26]: 1.0 mg/mL
Peptide concentration after 180 min [26]: 3.7 mg/mL
Peptide concentration after 24 h [26]: >4.0 mg/mL
Peptide concentration after 5 min [27]: 1.8 mg/mL
Peptide concentration after 180 min [27]: >4.0 mg/mL
Peptide concentration after 5 min [28]: 0.7 mg/mL
Peptide concentration after 180 min [28]: 2.8 mg/mL
Peptide concentration after 24 h [28]: >4.0 mg/mL
Peptide concentration after 5 min [29]: >4.0 mg/mL
Peptide concentration after 180 min [29]: >4.0 mg/mL
Peptide concentration after 5 min [30]: 1.6 mg/mL
Peptide concentration after 180 min [30]: >4.0 mg/mL
Peptide concentration after 24 h [30]: 4.0 mg/mL
Peptide concentration after 5 min [31]: >4.0 mg/mL
Peptide concentration after 180 min [31]: >4.0 mg/mL
Peptide concentration after 5 min [32]: 1.9 mg/mL
Peptide concentration after 180 min [32]: >4.0 mg/mL
Peptide concentration after 24 h [32]: 3.9 mg/mL
Peptide concentration after 5 min [33]: 3.9 mg/mL
Peptide concentration after 180 min [33]: >4.0 mg/mL
Peptide concentration after 5 min [34]: 1.0 mg/mL
Peptide concentration after 180 min [34]: 3.7 mg/mL
Peptide concentration after 24 h [34]: >4.0 mg/mL
Peptide concentration after 5 min [35]: 2.6 mg/mL
Peptide concentration after 180 min [35]: >4.0 mg/mL
Peptide concentration after 5 min [36]: 0.8 mg/mL
Peptide concentration after 180 min [36]: >4.0 mg/mL
Peptide concentration after 24 h [36]: >4.0 mg/mL
Peptide concentration after 5 min [37]: 0.7 mg/mL
Peptide concentration after 180 min [37]: 1.2 mg/mL
Peptide concentration after 24 h [37]: 1.5 mg/mL
Peptide concentration after 5 min (MeCN 57.3% w/w, pH 3.0, 70° C., Method 1): 0.9 mg/mL
